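A panel of P. falciparum strains inside erythrocytes is exposed to compounds for three days, then a DNA-binding dye reports the amount of parasite DNA.
Each compound was titrated across a series from about 0.000037 to 29 µM.
The number is the fitted AC50, the concentration giving a half-maximal change in signal; a lower value means higher potency, whether the curve shows a decrease or an increase.
Calls follow the curve class and fit quality: every row here is inconclusive, covering signal-raising curves and weak, poorly fitted, partial or highest-dose-only inhibition curves.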

Values are in nM.
All entries here are filed as inconclusive.
These entries are mostly ones the record files as inconclusive; other results of the assay are not listed here.
A potency from a partial, single-point or poor curve is only a rough figure.
Some entries filed as inconclusive have a full curve.
The first word of each remark tells which way the curve ran; it can be opposite to the aim of the assay.

compound,condition,Potency (nM),curve
CCN(CC)CCOC(=O)[C@@H](Cc1cccc2ccccc12)C[C@@H]1CCCO1,Dd2,3162,"inhibitor, partial curve"
CCN(CC)CCOC(=O)[C@@H](Cc1cccc2ccccc12)C[C@@H]1CCCO1,DIV14,2869,"inhibitor, partial curve, poor fit"
CCN(CC)CCOC(=O)[C@@H](Cc1cccc2ccccc12)C[C@@H]1CCCO1,7G8,3162,"inhibitor, partial curve"
CCN(CC)CCOC(=O)[C@@H](Cc1cccc2ccccc12)C[C@@H]1CCCO1,CP192,720.8,"inhibitor, partial curve, poor fit"
CCN(CC)CCOC(=O)[C@@H](Cc1cccc2ccccc12)C[C@@H]1CCCO1,DIV17,8087,"inhibitor, single point"
CCN(CC)CCOC(=O)[C@@H](Cc1cccc2ccccc12)C[C@@H]1CCCO1,PC26,3220,"inhibitor, partial curve"
C[C@@H]1CCN(C(=O)[C@H](CCCNC(=N)N)NS(=O)(=O)c2cccc3c2NC[C@H](C)C3)[C@@H](C(=O)O)C1,W2,1901,"inhibitor, single point"
C[C@@H]1CCN(C(=O)[C@H](CCCNC(=N)N)NS(=O)(=O)c2cccc3c2NC[C@H](C)C3)[C@@H](C(=O)O)C1,CP315,4256,"inhibitor, single point"
C[C@@H]1CCN(C(=O)[C@H](CCCNC(=N)N)NS(=O)(=O)c2cccc3c2NC[C@H](C)C3)[C@@H](C(=O)O)C1,CP203,30.1,"activator, full curve, poor fit"
OCC1OC(O)C(O)C(O)C1O (centres unmarked),CP291,21331,"inhibitor, single point"
OCC1OC(O)C(O)C(O)C1O (centres unmarked),CP325,11995,"inhibitor, partial curve, poor fit"
OCC1OC(O)C(O)C(O)C1O (centres unmarked),W2,1694,"inhibitor, single point"
OCC1OC(O)C(O)C(O)C1O (centres unmarked),CP297,16.9,"inhibitor, full curve, poor fit"
OCC1OC(O)C(O)C(O)C1O (centres unmarked),DIV17,19011,"inhibitor, single point"
OCC1OC(O)C(O)C(O)C1O (centres unmarked),GB4,19011,"inhibitor, single point"
OCC1OC(O)C(O)C(O)C1O (centres unmarked),PC26,21331,"inhibitor, single point"
OCC1OC(O)C(O)C(O)C1O (centres unmarked),DIV14,19011,"inhibitor, single point"
OCC1OC(O)C(O)C(O)C1O (centres unmarked),CP269,19011,"inhibitor, single point"
Cc1ccc(-c2nc3ccc(C)cn3c2CC(=O)N(C)C)cc1,P93_24,3981,"inhibitor, single point"
Cc1ccc(-c2nc3ccc(C)cn3c2CC(=O)N(C)C)cc1,DFO2036,1.1,"inhibitor, full curve, poor fit"
Cc1ccc(-c2nc3ccc(C)cn3c2CC(=O)N(C)C)cc1,CP297,134.6,activator
Cc1ccc(-c2nc3ccc(C)cn3c2CC(=O)N(C)C)cc1,CP256,1412,"inhibitor, full curve"
Cc1ccc(-c2nc3ccc(C)cn3c2CC(=O)N(C)C)cc1,PC26,15101,"inhibitor, single point"
Cc1ccc(-c2nc3ccc(C)cn3c2CC(=O)N(C)C)cc1,CP191,3981,"inhibitor, full curve, poor fit"
COc1cc(C(=S)N2CCOCC2)ccc1O,TAB113,3981,"inhibitor, single point"
COc1cc(C(=S)N2CCOCC2)ccc1O,CP266,301.3,"inhibitor, partial curve, poor fit"
C[C@]12Cc3nonc3C[C@@H]1CC[C@@H]1[C@@H]2CC[C@@]2(C)[C@H]1CC[C@]2(C)O,CP194,21331,"inhibitor, partial curve, poor fit"
C[C@]12Cc3nonc3C[C@@H]1CC[C@@H]1[C@@H]2CC[C@@]2(C)[C@H]1CC[C@]2(C)O,ICS,17782,"inhibitor, single point"
C[C@]12Cc3nonc3C[C@@H]1CC[C@@H]1[C@@H]2CC[C@@]2(C)[C@H]1CC[C@]2(C)O,CP217,11220,"inhibitor, single point"
C[C@]12Cc3nonc3C[C@@H]1CC[C@@H]1[C@@H]2CC[C@@]2(C)[C@H]1CC[C@]2(C)O,CP335,19011,"inhibitor, partial curve, poor fit"
O=C(Nc1ccc(Oc2ccc(Cl)cc2)c(Cl)c1)c1cc(I)cc(I)c1O,CP250,5623,"inhibitor, partial curve, poor fit"
O=C(Nc1ccc(Oc2ccc(Cl)cc2)c(Cl)c1)c1cc(I)cc(I)c1O,CP260,11220,"inhibitor, single point"

Source: PubChem BioAssay AID504749 (NCATS, 2011).